The assay addresses T1, Human WT P5CR1 (pyrroline-5-carboxylate reductase 1) (human), P32322.
T1 chain: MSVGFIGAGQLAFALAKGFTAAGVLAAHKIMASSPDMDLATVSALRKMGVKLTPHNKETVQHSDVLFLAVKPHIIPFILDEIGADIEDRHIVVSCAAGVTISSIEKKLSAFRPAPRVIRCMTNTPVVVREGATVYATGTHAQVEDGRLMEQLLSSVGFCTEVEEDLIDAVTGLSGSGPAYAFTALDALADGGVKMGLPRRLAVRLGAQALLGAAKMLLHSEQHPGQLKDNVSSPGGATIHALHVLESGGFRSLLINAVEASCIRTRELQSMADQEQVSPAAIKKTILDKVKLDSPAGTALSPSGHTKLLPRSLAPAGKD
In words: SEC; Superdex-200 column; WT P5CR1; buffer not stated; both purified. The conditions noted are these: remark: other sources report otherwise. Background: Size exclusion chromatography separates by hydrodynamic size, large species first.

These are yes or no findings as the source states them, for the method shown. Some binding calls cover weakened binding; strength is not graded here.

B1: Human WT P5CR1 (pyrroline-5-carboxylate reductase 1), P32322 1-319 (enzyme)
chain: T1 chain
As for B1, the binding result is “binds”.

The record behind these values is PMC5286483, “Effect of R119G Mutation on Human P5CR1 Dynamic Property and Enzymatic Activity” (BioMed Research International, 2017).
